# According to US20260265267A1, “NOVEL COMPOUNDS WITH MTORC2-INHIBITORY ACTIVITY AND USES THEREOF” (Aliad Biopharma, priority 2023, published 2026):
# How the values were obtained:
# Format in all cases: in vivo
# [1] = tested on: 5×FAD Alzheimer's disease model mice; experiment: Passive avoidance test in 5×FAD mice (long-term memory); settings: 1 mg/kg, 2 weeks (FIG. 7)
# Description: (§1) In order to evaluate the efficacy of HN2210, HN2213, and HN2313 on Alzheimer's disease-related symptoms, specifically regarding 1) memory and cognitive impairment, 2) amyloid plaques, 3) neurofibrillary tangles (NFTs), and 4) brain inflammation, an in vivo efficacy assessment of HN2210, HN2213 and HN2313 was conducted using 5×FAD Alzheimer's disease model mice. The 5×FAD mice were purchased from Jackson Lab, USA (Cat #034840-JAX) and crossed once with C57bl6 mice to produce F1 heterozygous offspring (Het). The compound was administered via intraperitoneal injection to 6-month-old 5×FAD Het mice, followed by behavioral testing. The normal control mice, which were littermates of the 5×FAD Het mice, were aged to 6 months and received DMSO injection at the same volume. […]
# Specifically, to mice trained to avoid bright light three times daily, an electric foot shock (1 mA, 300 g) was applied for 3 seconds in a dark room at the same time on the next day. After 24 hours, the mice were placed again in the same room, and the avoidance response by light, that is, the time taken to move from the bright room to the dark room was measured. At 24 hours after habituation training, the mice were placed back into the bright room, and the latency time for entering the dark room was recorded over a period of 720 seconds. […]
# [2] = tested on: 5×FAD Alzheimer's disease model mice; experiment: Y-maze test in 5×FAD mice (short-term memory); settings: 1 mg/kg, intraperitoneal, 2 weeks
# Description: as §1
# Specifically, the Y-maze test was performed using a Y-shaped structure maze made of black acrylic with each arm at a […], and light and a camera were installed on the ceiling, and we measured the number of entries for white mice to freely enter each arm while the surroundings were covered with a curtain. […] When all four paws of a mice entered an arm, it was considered as fully entered, and the number of entries into each arm without repetition was recorded. The number of entries into each of the three different arms was divided by the total number of entries into all arms minus 2, and expressed as a percentage. […]
# [3] = tested on: 5×FAD Alzheimer's disease model mice; experiment: Morris water maze test in 5×FAD mice (spatial perceptive ability); settings: 1 mg/kg, 2 weeks
# Description: as §1
# Specifically, a 50 cm deep water tank filled with water (25.0±1.0° C.) was divided into four equal quadrants, and a platform (12 cm diameter) was placed 3 mm below the water surface in the center of one quadrant. […] The following day, the platform was removed, and the time the experimental animal spent in the target quadrant was measured (probe trial). Videos were recorded and analyzed using the Ethovision video tracking system (Noldus Information Technology, Wageningen, Netherlands). […]
compound,measurement,setting,value
"COc1cc2c(cc1OC)C(=O)C(CC1CCN(Cc3ccccc3)CC1)C2 (stereo not shown) [donepezil, reference compound]","passive avoidance latency time, % of the normal control level",[1],about 38%
same,"Y-maze % alternation, effect",[2],did not result in significant increase
same,"Morris water maze number of target crossings, effect",[3],did not result in significant increases
same,"Morris water maze time spent in the target quadrant, effect",[3],did not result in significant increases
